# According to US20240115744A1, “FIBRIN-BINDING COMPOUNDS FOR IMAGING AND TREATMENT” (Collagen Medical, LLC, priority 2019, published 2024):
# At least one structure is not confirmed: it was looked up by name or label, or the drawing left a doubt.
# Target: T1, human fibrin (Homo sapiens, UniProt P02671+P02675+P02679)
# T1 construct: Fibrin plates with alternating rows of clotted fibrin and empty wells were prepared by polymerizing fibrinogen; made in house
# T1 sequence (P02671 36-866 limits assumed): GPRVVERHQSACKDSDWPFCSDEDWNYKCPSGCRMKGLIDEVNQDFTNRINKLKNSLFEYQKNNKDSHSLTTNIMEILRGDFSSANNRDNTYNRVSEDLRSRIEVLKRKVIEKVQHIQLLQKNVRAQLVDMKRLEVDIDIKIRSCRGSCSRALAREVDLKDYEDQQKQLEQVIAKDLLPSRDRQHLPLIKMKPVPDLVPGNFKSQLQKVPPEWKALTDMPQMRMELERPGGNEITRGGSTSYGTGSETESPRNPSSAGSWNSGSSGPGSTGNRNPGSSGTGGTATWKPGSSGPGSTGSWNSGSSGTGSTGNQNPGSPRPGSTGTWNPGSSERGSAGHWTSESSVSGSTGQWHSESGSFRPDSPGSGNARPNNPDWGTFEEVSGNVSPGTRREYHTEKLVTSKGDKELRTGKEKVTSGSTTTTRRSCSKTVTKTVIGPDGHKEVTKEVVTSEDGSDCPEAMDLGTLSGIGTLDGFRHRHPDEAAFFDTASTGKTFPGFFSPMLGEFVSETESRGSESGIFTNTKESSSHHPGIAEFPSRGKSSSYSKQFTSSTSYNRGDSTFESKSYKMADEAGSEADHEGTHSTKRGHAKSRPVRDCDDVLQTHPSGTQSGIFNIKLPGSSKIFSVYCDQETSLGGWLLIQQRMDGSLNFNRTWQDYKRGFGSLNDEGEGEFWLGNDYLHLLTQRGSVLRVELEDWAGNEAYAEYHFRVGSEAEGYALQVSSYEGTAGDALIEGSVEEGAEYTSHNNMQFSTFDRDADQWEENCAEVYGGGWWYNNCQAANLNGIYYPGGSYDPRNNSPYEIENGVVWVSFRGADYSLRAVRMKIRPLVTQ
# T1 sequence (P02675 45-491 limits assumed): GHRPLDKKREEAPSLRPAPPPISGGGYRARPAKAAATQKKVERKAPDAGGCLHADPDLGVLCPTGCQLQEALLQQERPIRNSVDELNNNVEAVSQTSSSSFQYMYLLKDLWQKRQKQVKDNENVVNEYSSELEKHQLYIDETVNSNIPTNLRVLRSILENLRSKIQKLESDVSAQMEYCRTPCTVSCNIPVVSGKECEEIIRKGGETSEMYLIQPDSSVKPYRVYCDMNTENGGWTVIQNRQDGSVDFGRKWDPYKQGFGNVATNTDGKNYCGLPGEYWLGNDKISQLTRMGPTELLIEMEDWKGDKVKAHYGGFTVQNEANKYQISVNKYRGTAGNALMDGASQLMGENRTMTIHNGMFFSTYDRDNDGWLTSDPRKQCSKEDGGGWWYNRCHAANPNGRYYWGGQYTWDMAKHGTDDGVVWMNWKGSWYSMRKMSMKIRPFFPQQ
# T1 sequence (P02679 27-453): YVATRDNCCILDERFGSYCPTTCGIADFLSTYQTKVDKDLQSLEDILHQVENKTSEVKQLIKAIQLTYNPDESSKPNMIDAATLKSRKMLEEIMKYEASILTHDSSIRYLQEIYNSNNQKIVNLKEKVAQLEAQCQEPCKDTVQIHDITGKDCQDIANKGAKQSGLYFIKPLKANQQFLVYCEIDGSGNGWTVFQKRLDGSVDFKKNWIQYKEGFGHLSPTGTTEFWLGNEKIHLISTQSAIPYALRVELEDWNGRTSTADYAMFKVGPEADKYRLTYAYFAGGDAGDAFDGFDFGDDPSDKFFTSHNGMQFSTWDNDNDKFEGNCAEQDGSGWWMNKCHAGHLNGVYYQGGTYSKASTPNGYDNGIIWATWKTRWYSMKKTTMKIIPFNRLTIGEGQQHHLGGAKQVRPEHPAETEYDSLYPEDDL
# Experiment: Plate-based F-18 radioactivity assay for fibrin affinity and specificity
# Assay type: binding
# Conditions: presence and absence of plasma proteins
structure (smiles),measurement,value
"CC[C@H](C)[C@H](NC(=O)[C@H](Cc1ccc(O)cc1)NC(=O)[C@@H]1CSSC[C@H](NC(=O)[C@@H](CCC(=O)O)NC(=O)[C@H](Cc2ccc(O)cc2)NC(=O)c2ccc([18F])nc2)C(=O)N2C[C@H](O)C[C@H]2C(=O)N[C@@H](Cc2ccc(O)c(Cl)c2)C(=O)NCC(=O)N[C@@H](CC(C)C)C(=O)N1)C(=O)N[C@@H](CCC(N)=O)C(N)=O [Compound ^18F-7, -Y-e-C-Hyp-Y(3-Cl)-G-L-C-Y-I-Q-]",binding specificity for fibrin over fibrinogen,high degree of binding specificity for fibrin over fibrinogen
